Results deposited as PubChem BioAssay AID504793 (Drosophila RNAi Screening Center, 2011).
Aim: 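Genes required for cells to halt at G2/M after double-strand DNA breaks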 (primary screen). Cell system: Drosophila S2R+ cells. Reagent: long dsRNA against Drosophila genes, about 0.25 µg dsRNA per well. Duration: 4 days of dsRNA, then 4 hours of drug before read-out. Treatment: doxorubicin 0.5 µM for 4 hours to cause double-strand breaks, in cells also given a low, harmless dose of dsRNA against nbs to sensitise the assay. Read-out: 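Per-well count of mitotic cells stained for phospho-histone H3 after doxorubicin exposure, used as mitotic index; counts are raw and not normalised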. Reading the numbers: mitotic cells: higher = more cells in mitosis, weaker G2 arrest. Hit rule: 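Genes are called active only when high mitotic counts were reproduced with independent dsRNAs and mitosis was checked for delay without damage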. Calls: active = confirmed in follow-up tests; inactive = not confirmed.
The screen tested about 23,000 reagents; shown is an unselected part of those that have a named target and a result. Over the whole deposit, 62 (0.27%) got an active call. 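Calls come from follow-up tests whose scores are not deposited, so confirmed genes may have low counts here; counts are not normalised per plate.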 Raw values are not corrected between plates. A plus sign joins genes that one reagent is predicted to hit.

target | amplicon | mitotic cells, replicate 1 | mitotic cells, replicate 2 | call
CG13907 | DRSC08377 | 6 | – | inactive
CG13907 | DRSC25983 | 4 | – | inactive
Cndp2 | DRSC04873 | 4 | – | inactive
Tsp74F | DRSC10508 | 7 | – | inactive
ND-23 | DRSC15526 | 10 | – | inactive
arr | DRSC07451 | 4 | – | inactive
arr | DRSC27035 | 4 | – | inactive
Mgat4a | DRSC09326 | 7 | – | inactive
Mgat4a | DRSC11070 | 9 | – | inactive
CG7465 | DRSC08592 | 8 | – | inactive
CG7465 | DRSC22320 | 10 | – | inactive
CG7465 | DRSC23943 | 5 | – | inactive
MED8 | DRSC06426 | 3 | – | inactive
norpA | DRSC18806 | 10 | – | inactive
CG42374 + Mettl5 | DRSC11085 | 3 | – | inactive
CG12691 | DRSC17880 | 10 | – | inactive
Ifrd1 | DRSC00415 | 3 | – | inactive
Ifrd1 | DRSC00566 | 5 | – | inactive
lncRNA:CR32730 | DRSC22957 | 9 | – | inactive
CG14630 | DRSC18166 | 6 | – | inactive
CG14630 | DRSC18653 | 12 | – | inactive
Tsen34 | DRSC22932 | 8 | – | inactive
comt | DRSC20319 | 12 | – | inactive
comt | DRSC25218 | 6 | – | inactive
insv | DRSC00579 | 1 | – | inactive
insv | DRSC28219 | 7 | – | inactive
wash | DRSC06302 | 2 | – | inactive
CG5151 | DRSC23220 | 11 | – | inactive
CG5151 | DRSC29097 | 2 | – | inactive
CG12307 | DRSC02159 | 5 | – | inactive
CG3301 | DRSC15471 | – | – | inactive
DIP2 | DRSC08582 | 1 | – | inactive
AlaRS-m | DRSC09660 | 7 | – | inactive
AlaRS-m | DRSC28250 | 11 | – | inactive
Gr98c | DRSC22212 | 7 | – | inactive
Gr98c | DRSC26546 | 7 | – | inactive
CG14285 | DRSC14766 | 9 | – | inactive
CG32727 | DRSC17519 | 6 | – | inactive
Fkbp59 | DRSC03323 | 4 | – | inactive
Fkbp59 | DRSC28356 | 3 | – | inactive
CG33639 | DRSC19966 | 11 | – | inactive
CG33639 | DRSC22820 | 6 | – | inactive
CG33639 | DRSC23778 | 3 | – | inactive
CG9676 | DRSC20204 | 7 | – | inactive
l(3)mbn | DRSC08793 | 3 | – | inactive
mle | DRSC04921 | 6 | – | inactive
Cpr47Ee | DRSC23164 | 16 | – | inactive
step | DRSC03694 | 4 | – | inactive
step | DRSC03699 | 4 | – | inactive
CG8066 | DRSC16374 | 6 | – | inactive
CG8066 | DRSC24633 | 9 | – | inactive
Bet1 | DRSC10088 | 5 | – | inactive
CG7213 | DRSC10787 | 3 | – | inactive
scu | DRSC20369 | 11 | – | inactive
scu | DRSC27026 | 6 | – | inactive
FoxP | DRSC15159 | 4 | – | inactive
FoxP | DRSC21961 | 8 | – | inactive
FoxP | DRSC29407 | 6 | – | inactive
Afg3l2 | DRSC10657 | 2 | – | inactive
Afg3l2 | DRSC29981 | 16 | – | inactive
Mal-A1 | DRSC07461 | 5 | – | inactive
Mal-A1 | DRSC29096 | 3 | – | inactive
CG15676 | DRSC04267 | 7 | – | inactive
CG15676 | DRSC27015 | 7 | – | inactive
Sin3A | DRSC07552 | 2 | – | inactive
Sin3A | DRSC37642 | 3 | – | inactive
Sik2 | DRSC18522 | 16 | – | inactive
Obp83a | DRSC12362 | 8 | – | inactive
Cln7 | DRSC11005 | 10 | – | inactive
CG15699 (retired record) | DRSC06571 | 5 | – | inactive
piwi | DRSC03592 | 4 | – | inactive
Rad23 | DRSC17167 | 9 | – | inactive
thoc7 | DRSC08512 | 8 | – | inactive
thoc7 | DRSC29470 | 14 | – | inactive
PheRS-m | DRSC05915 | 5 | – | inactive
CG3880 | DRSC04428 | 7 | – | inactive
CG3880 | DRSC21404 | 10 | – | inactive
CG3880 | DRSC27449 | 3 | – | inactive
Ca-beta | DRSC02406 | 2 | – | inactive
Ca-beta | DRSC02407 | 6 | – | inactive
Ca-beta | DRSC03285 | 4 | – | inactive
Ca-beta | DRSC21432 | 20 | – | inactive
Ca-beta | DRSC23813 | 4 | – | inactive
CG2915 | DRSC06842 | 9 | – | inactive
CG3739 | DRSC15510 | 7 | – | inactive
Ndfip | DRSC11201 | 9 | – | inactive
CG14857 | DRSC14981 | 7 | – | inactive
mAcon2 | DRSC15629 | 4 | – | inactive
mAcon2 | DRSC24696 | 8 | – | inactive
Jabba | DRSC06521 | 5 | – | inactive
CG5758 | DRSC02889 | 9 | 3 | inactive
CG5758 | DRSC02890 | 5 | – | inactive
CG5758 | DRSC29658 | 4 | – | inactive
TTLL6A | DRSC06618 | 5 | – | inactive
TTLL6A | DRSC24494 | 6 | – | inactive
CG6567 + CG4565 | DRSC15599 | 2 | – | inactive
CG1494 | DRSC20509 | 12 | – | inactive
CG43102 | DRSC14797 | 9 | – | inactive
CG43102 | DRSC16239 | 11 | – | inactive
CG43102 | DRSC28809 | 2 | – | inactive
Lpin | DRSC07241 | 5 | – | inactive
mib1 | DRSC10550 | 8 | – | inactive
CG15696 | DRSC15118 | 12 | – | inactive
CG15696 | DRSC25170 | 6 | – | inactive
CG11788 | DRSC06084 | 4 | – | inactive
Xpc | DRSC07654 | 11 | – | inactive
CG31266 | DRSC15747 | 1 | – | inactive
Pnn | DRSC16415 | 4 | – | inactive
vis + achi | DRSC07277 | 5 | – | inactive
Edg78E | DRSC11863 | 2 | – | inactive
Edg78E | DRSC26712 | 6 | – | inactive

Reformatted: entries from further up.
Fkbp59 [DRSC28356] → mitotic cells, replicate 1: 3; call: inactive
CG33639 [DRSC19966] → mitotic cells, replicate 1: 11; call: inactive
CG33639 [DRSC22820] → mitotic cells, replicate 1: 6; call: inactive
CG33639 [DRSC23778] → mitotic cells, replicate 1: 3; call: inactive
CG9676 [DRSC20204] → mitotic cells, replicate 1: 7; call: inactive
